The test concerns the target T1, pep11** fused to the GAL4 DNA binding domain.
T1 sequence: KEKEEYNSNCSCIACIGLI
The experiment in a line: two-hybrid; mammalian two-hybrid (CheckMate) in HeLa cells; peptides fused to GAL4-BD (pBIND), E6 proteins fused to VP16-AD (pACT); luciferase reporter pG5luc, normalized for pCMV-Gal. On the technique in general: A reporter such as luciferase makes a cellular process visible.

These are yes or no findings as the source states them, for the method shown. Binding calls can cover weak binding; strength is not graded here. Sequences can lack the tags named with a protein.

As to “16E6R55A fused to the VP16 transcriptional activation domain (human papillomavirus type 16)”, the binding result is given as “binds”.
